# Assay results as given in PubChem BioAssay AID2685 (National Center for Advancing Translational Sciences (NCATS), 2010).
# Some of the results follow. These are further read-outs of the screen, such as a control signal, another cell line or another target. No call is given for them. The list favours compounds with an active or inconclusive main result. Potencies come from curve fits of mixed quality, noted in brackets.
# Experiment: qHTS Assay for Lipid Storage Modulators in Drosophila S3 Cells;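 as to cell number change: cells counted by Cell Tracker Red CMTPX staining in the red channel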
# Settings: BODIPY lipid droplet fluorescence, 18-24 h; for cell number change: measured here: cell count max response, cells fed with added oleic acid
# Summary of the method: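 Drosophila S3 cells loaded with oleic acid (400 uM, as added) and compounds at several concentrations; lipid droplets imaged by 488-nm laser-scanning cytometry, 500–530 nm intensity and object ratio to cell channel. Percent activity normalized to 20 uM Triacsin C.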
# [1] = measured here: lipid fluorescence (Fed channel) AC50, cells fed with added oleic acid
# [2] = measured here: cell number channel AC50, cells fed with added oleic acid
Compound,cell number change [%],AC50 [1],AC50 [2]
CC(Sc1ccccn1)C(=O)Nc1ccc2c(c1)OCCO2 (stereo unspecified),0.803,"1.03 µM [rising, full curve]",–
CCn1cc(Br)c(C(=O)N(C)Cc2ccccc2)n1,-6.56,"0.13 µM [falling, full curve, poor fit]",–
CCOC(=O)N1CCN(C(=O)C2CCN(S(=O)(=O)N(CC)CC)CC2)CC1,-7.92,"6.51 µM [falling, single point]",–
O=C(/C=C/c1ccc(-c2ccccc2[N+](=O)[O-])o1)c1ccc(Br)cc1,69.8,"6.51 µM [rising, single point]","13 µM [rising, partial curve]"
CCOC(=O)c1c(C)[nH]c(N=Nc2ccc(C)cc2C)c1C,-70.7,–,–
CC1(c2ccc(C#N)cc2)NC(=O)N(CC(=O)Nc2cc(S(=O)(=O)N3CCOCC3)ccc2Cl)C1=O (stereo unspecified),49.1,–,–
CC1(C)Cc2cccc(OCC(=O)N3CCN(S(=O)(=O)c4ccc(F)cc4)CC3)c2O1,0.467,–,–
CN(CC(=O)NCc1ccccn1)S(=O)(=O)c1ccccc1,144,–,–
CC(C)c1cc(N2CCN(C(=O)c3ccco3)CC2)n2c(nc3ccccc32)c1C#N,–,"0.291 µM [rising, partial curve, poor fit]","0.411 µM [rising, full curve]"
COc1nnc(-c2ccc(N3CCCCC3)c(NC(=O)C3CCCCC3)c2)c2ccccc12,-12.1,"0.58 µM [rising, single point]","1.46 µM [rising, partial curve]"
Cc1oc2cc3oc(=O)c(CCC(=O)NCCCC(=O)O)c(C)c3cc2c1C,43.1,–,–
CN1C2=NCCN2C(=O)c2ccccc21,23.3,–,–
NS(=O)(=O)c1ccc(CNC(=O)c2csc3c2CCCC3)cc1,-9.41,"0.366 µM [falling, full curve, poor fit]",–
O=C(Nc1ccc2c(c1)OCO2)C1CCN(Cc2cc3c(cc2O)OCO3)CC1,13.3,–,–
C=CCOc1ccc(C2C3=C(CCCC3=O)N(CC(=O)O)C3=C2C(=O)CCC3)cc1OCC,11.5,"29.1 µM [rising, single point]",–
COc1ccc(NC(=O)N2CCCC2C(=O)Nc2ccc(C)cc2)cc1 (stereo unspecified),45.5,"25.9 µM [rising, partial curve, poor fit]","13 µM [rising, partial curve, poor fit]"
CC(C)Cc1nnc(NC(=O)CSc2nc(O)c(Cc3ccccc3)c(=O)[nH]2)s1,-29,–,–
COc1ccc2c(c1)CC1c3c(cc4c(c3-2)OCO4)CC[N+]1(C)[O-] (stereo unspecified),19.7,"32.6 µM [rising, single point]",–
O=C(Nc1cccc(C(F)(F)F)c1)N(Cc1ccc(Cl)cc1)CC(O)C(F)(F)F (stereo unspecified),-75.3,"20.6 µM [falling, single point]","14.6 µM [falling, partial curve]"
CCCCSc1nc2sc3c(c2c(=O)n1-c1ccccc1)CCN(C)C3,41.7,–,–

Compound,cell number change [%],AC50 [1],AC50 [2]
C#CCOCCOCCOCCNc1nc(N2CCOCC2)nc(N2CCN(C(=O)[C@H](Cc3cc4ccccc4[nH]3)n3cc([C@@H](N)CC(C)C)nn3)CC2)n1,14.4,"6.51 µM [rising, single point]",–
CCC(C(=O)O)n1nnc(-c2ccc(-c3ccc(OC)cc3)cc2)n1 (stereo unspecified),6.9,"4.61 µM [falling, single point]",–
COc1ccc(-c2nn3c(COc4ccccc4)nnc3s2)cc1OC,-1.44,"6.51 µM [rising, single point]",–
Cn1cccc1C(=O)Nc1nccs1,19.9,"9.2 µM [rising, single point]",–
CC(NC(=O)c1ccncc1)C(C)(C)C (stereo unspecified),-37.5,"14.6 µM [falling, partial curve]","5.8 µM [falling, full curve]"
CC(=O)NS(=O)(=O)c1ccc(NC(=O)c2ccc(NC(=O)c3cccs3)cc2)cc1,6.46,"0.164 µM [falling, full curve, poor fit]",–
CC(=O)c1ccc(NC(=O)CSc2ccc(-c3sc(C)nc3C)nn2)cc1,20.9,"1.46 µM [rising, full curve, poor fit]",–
O=S(=O)(N/N=C\c1ccc2c(c1)OCO2)c1ccc(Cl)cc1,-26.2,"29.1 µM [falling, single point]",–
Nc1ccc(C(=O)OCc2csc(-c3ccccc3)n2)cc1[N+](=O)[O-],-4.05,"16.4 µM [falling, single point]",–
CCOC(=O)c1cc(-c2ccc(Cl)cc2)nc2c1c(C)nn2CCC#N,-21.1,–,–
COc1ccc(C=C(C#N)C#N)c(CSc2ccccn2)c1,-8.11,"16.4 µM [falling, single point]",–
COc1ccc(Cl)cc1NC(=O)CN(C)C(=O)C12CC3CC(CC(Cl)(C3)C1)C2,-8.5,"29.1 µM [rising, single point]",–
c1ccc(Cn2c(CSc3nnnn3-c3ccccc3)nc3ccccc32)cc1,-3.24,–,–
CC(=O)c1cccc(S(=O)(=O)NC2CCSc3ccccc32)c1 (stereo unspecified),31.9,"18.4 µM [rising, single point]",–
COc1ccccc1NC(=O)C(C)OC(=O)CCSc1ccc(F)cc1 (stereo unspecified),123,–,"29.1 µM [rising, single point]"
O=C(CSc1nnc(-c2ccccn2)n1Cc1ccco1)c1ccccc1,-22.1,"29.1 µM [rising, single point]",–
O=C(CCN1CCN(c2ccccc2)CC1)N/N=C/c1ccc([N+](=O)[O-])o1,-1.37,–,–
Cc1ccc(S(=O)(=O)N(CC(=O)NCc2ccco2)c2ccccc2C)cc1,-37.2,–,"9.2 µM [falling, partial curve, poor fit]"
CS(=O)(=O)c1ccc(-c2nnc(NC(=O)c3ccc(S(=O)(=O)N4CCCC4)cc3)o2)cc1,15.2,"0.326 µM [falling, full curve, poor fit]",–
CSCC[C@H](NC(=O)C(C)(C)Oc1ccc(Cl)cc1)c1nc2ccccc2[nH]1,-16.2,"2.31 µM [falling, full curve, poor fit]","1.46 µM [rising, partial curve]"

# Random excerpt: three compounds from above.
Compound,cell number change [%],AC50 [1],AC50 [2]
O=C(CCN1CCN(c2ccccc2)CC1)N/N=C/c1ccc([N+](=O)[O-])o1,-1.37,–,–
COc1ccc(-c2nn3c(COc4ccccc4)nnc3s2)cc1OC,-1.44,"6.51 µM [rising, single point]",–
O=S(=O)(N/N=C\c1ccc2c(c1)OCO2)c1ccc(Cl)cc1,-26.2,"29.1 µM [falling, single point]",–

# Carrying on.

Compound,cell number change [%],AC50 [1],AC50 [2]
CCCCNC(=O)C(c1ccc(-c2ccccc2)cc1)N(CCN1CCOCC1)C(=O)CCCCCN1C(=O)NC(c2ccc([N+](=O)[O-])cc2)C(C(=O)OCc2ccccc2)=C1C (stereo unspecified),13.5,"7.31 µM [rising, partial curve]",–
O=C1C(Cc2ccc(Br)cc2)SC(=Nc2ccccc2)N1c1ccccc1 (stereo unspecified),15.7,"16.4 µM [rising, single point]",–
CC(CN1CCCCC1)C(=O)NNC(=O)C12CC3CC(CC(C3)C1)C2 (stereo unspecified),-6.65,–,–
COc1ccc(-n2nc(C(=O)NCC(=O)NCc3ccccc3OC)c3ccccc3c2=O)c(OC)c1,-0.9,"7.31 µM [rising, single point]",–
O=C(/C=C/c1cccnc1)c1ccccc1O,13.1,"1.03 µM [rising, full curve, poor fit]",–
CCCn1c(CC)nc([N+](=O)[O-])c1Sc1ccc(F)cc1,15.5,"18.4 µM [rising, single point]",–
CCCCn1nc2cc(C(=O)NCC34CC5CC(CC(C5)C3)C4)ccc2c1OCC,-33.2,"16.4 µM [falling, partial curve]","10.3 µM [falling, partial curve]"
Cc1ccccc1NS(=O)(=O)c1ccc(C(=O)N2CCCC(C(F)(F)F)C2)cc1 (stereo unspecified),-20.4,–,–
CCCCCCCc1n[nH]c(=S)n1Cc1ccccc1,-34.3,"25.9 µM [falling, single point]","20.6 µM [falling, single point]"
CCN(CC)S(=O)(=O)c1ccc(C)c(NC(=O)CNCc2ccccc2OC)c1,15.3,–,–
COc1ccc(CNC(=O)Cn2ncn3cccc3c2=O)cc1,-35.1,"0.00517 µM [falling, full curve, poor fit]","18.4 µM [falling, single point]"
Cc1ccc(NC(=O)Cn2nc(C(F)(F)F)c3c2CCC3)cc1,29.5,"3.26 µM [rising, single point]","2.31 µM [rising, single point]"
CCOc1cc(C=O)cc(Br)c1OCC(N)=O,-32.9,–,"6.51 µM [falling, single point]"
Cc1ccc(C(=O)Nc2cccc(N3C(=O)C4CCC(C)CC4C3=O)c2)cc1 (stereo unspecified),-28.2,"29.1 µM [falling, single point]",–
O=C1OCC/C1=C\c1ccc2c(c1)OCO2,-53.8,"25.9 µM [falling, partial curve, poor fit]","23.1 µM [falling, partial curve, poor fit]"
COc1ccc(C(=O)N/C(=C\c2cn(S(=O)(=O)N(C)C)c3ccccc23)C(=O)NCCCn2ccnc2)cc1,15.8,"0.58 µM [falling, single point]","2.31 µM [falling, partial curve]"
O=C(Nc1cccc(C(=O)N2CCCCC2)c1)c1ccc(Cl)cc1,24.3,"6.51 µM [rising, single point]",–
CN(C)c1ccc(N=C/C=C2/N(C)c3ccccc3C2(C)C)cc1,-93.5,"9.2 µM [falling, partial curve]","5.17 µM [falling, single point]"
Cc1ccc(CNC(=O)CNS(=O)(=O)c2ccc3c(c2)C(C)(C)C(=O)N3C)cc1,-28.2,"6.51 µM [falling, full curve]",–
